Results: PMC11061277
Results are given in words; binding and its absence hold for the method and conditions named. In cells and extracts the contact can be indirect. Some results given as binding are weak or reduced against the parent protein; the word gives no strength.

The chains behind the UniProt entries cited, without tags or fusion partners.
UniProt P07355: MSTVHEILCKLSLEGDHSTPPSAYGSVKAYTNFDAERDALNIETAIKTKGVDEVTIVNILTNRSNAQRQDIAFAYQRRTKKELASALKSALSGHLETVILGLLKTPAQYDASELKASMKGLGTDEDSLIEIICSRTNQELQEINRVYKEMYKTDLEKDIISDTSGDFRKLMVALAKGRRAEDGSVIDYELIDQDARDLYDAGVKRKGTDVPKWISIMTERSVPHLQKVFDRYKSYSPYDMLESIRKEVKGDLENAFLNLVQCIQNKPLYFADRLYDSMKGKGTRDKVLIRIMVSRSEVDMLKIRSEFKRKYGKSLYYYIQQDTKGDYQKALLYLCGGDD

Columns and labels:
[1] = target: T1, tripartite motif containing 65 (TRIM65) (human (endogenous in A549 and H1299)) (UniProt Q6PJ69); assay: co-IP; endogenous IP from whole-cell lysates (IP lysis buffer) of A549 and H1299 cells with antibodies against TRIM65 or ANXA2 or normal IgG, Protein A/G PLUS-Agarose, western blot; also in cells stably overexpressing lncRNA HAR1A against vector cells (more ANXA2 with anti-TRIM65)
T1 sequence: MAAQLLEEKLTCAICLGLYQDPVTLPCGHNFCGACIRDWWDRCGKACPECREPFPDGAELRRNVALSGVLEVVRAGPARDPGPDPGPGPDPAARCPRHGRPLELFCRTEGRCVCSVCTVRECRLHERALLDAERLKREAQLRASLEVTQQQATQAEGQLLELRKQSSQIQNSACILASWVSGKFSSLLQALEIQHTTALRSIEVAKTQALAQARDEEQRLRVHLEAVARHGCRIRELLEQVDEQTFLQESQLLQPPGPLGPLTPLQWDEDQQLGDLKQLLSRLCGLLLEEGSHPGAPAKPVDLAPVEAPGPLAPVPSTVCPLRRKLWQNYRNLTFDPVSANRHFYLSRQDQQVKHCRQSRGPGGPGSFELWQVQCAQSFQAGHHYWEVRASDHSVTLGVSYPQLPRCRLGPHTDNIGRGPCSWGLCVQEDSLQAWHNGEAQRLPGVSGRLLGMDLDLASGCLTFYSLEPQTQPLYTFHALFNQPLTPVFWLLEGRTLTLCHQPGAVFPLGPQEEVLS

[2] = target: annexin 2 (ANXA2) (human (endogenous in A549 and H1299)) (UniProt P07355); assay: as above

With “annexin 2 (ANXA2) (from UniProt P07355 1-339)” the binding [1] was “binds”.

B1: tripartite motif containing 65 (TRIM65) (protein, UniProt Q6PJ69 1-517)
chain: T1 sequence
With B1 the binding [2] was “binds”.
